The record followed here is paper PMC3045441.

These are yes or no findings as the source states them, for the method shown. In cells and extracts the contact can be indirect. Some results given as binding are weak or reduced against the parent protein; the word gives no strength. Sequences can lack the tags named with a protein.

The target in this assay is T1, MYC-tagged full-length mouse RBM44 (second copy FLAG-tagged in the self-association experiment) (mouse) (UniProt Q3V089).
T1 sequence: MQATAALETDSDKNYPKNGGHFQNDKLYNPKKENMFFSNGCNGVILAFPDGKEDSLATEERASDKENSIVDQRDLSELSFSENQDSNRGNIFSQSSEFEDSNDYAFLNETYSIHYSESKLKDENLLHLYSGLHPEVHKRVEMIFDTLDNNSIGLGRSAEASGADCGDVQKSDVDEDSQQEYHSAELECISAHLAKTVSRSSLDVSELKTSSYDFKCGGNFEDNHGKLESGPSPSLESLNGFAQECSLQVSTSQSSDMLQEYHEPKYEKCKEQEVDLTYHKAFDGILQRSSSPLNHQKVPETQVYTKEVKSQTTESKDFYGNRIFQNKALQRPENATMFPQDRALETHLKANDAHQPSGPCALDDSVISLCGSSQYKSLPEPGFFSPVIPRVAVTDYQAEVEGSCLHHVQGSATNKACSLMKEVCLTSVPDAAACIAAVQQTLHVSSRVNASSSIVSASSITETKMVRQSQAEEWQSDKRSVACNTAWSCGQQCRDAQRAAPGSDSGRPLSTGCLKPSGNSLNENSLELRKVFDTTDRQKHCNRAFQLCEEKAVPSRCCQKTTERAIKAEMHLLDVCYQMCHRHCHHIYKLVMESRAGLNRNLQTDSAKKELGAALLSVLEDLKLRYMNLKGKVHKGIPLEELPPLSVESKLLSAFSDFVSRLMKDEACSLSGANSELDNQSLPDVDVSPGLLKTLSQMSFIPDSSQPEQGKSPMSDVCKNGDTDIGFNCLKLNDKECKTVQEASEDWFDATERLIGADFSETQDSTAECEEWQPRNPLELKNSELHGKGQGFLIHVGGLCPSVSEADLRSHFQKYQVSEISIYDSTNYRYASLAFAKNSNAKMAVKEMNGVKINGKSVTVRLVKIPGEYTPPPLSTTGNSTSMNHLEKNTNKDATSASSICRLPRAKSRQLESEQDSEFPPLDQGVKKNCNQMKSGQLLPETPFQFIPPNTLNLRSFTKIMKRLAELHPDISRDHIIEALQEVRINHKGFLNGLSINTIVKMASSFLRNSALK
The assay is described as follows: co-IP; flag-tagged Tex14 or Rbm44 vector co-transfected with myc-tagged Rbm44 vector in HEK293T; immunoprecipitation with anti-FLAG or anti-MYC antibodies, western blot with anti-FLAG or anti-MYC; Protein G as control. (In western blotting, separated proteins are transferred to a membrane and probed.)

B1: FLAG-tagged full-length mouse TEX14 (protein, UniProt Q7M6U3 1-1450)
chain: MSRGAPFPVPCPVLLGTFTDDSLEAQLHEYAKQGNCVKLKKILKKGVCVDAVNTQGQSALFVAALLGHVKLVDVLVDYGSDPNHRCFDGSTPVHAAAFSGNQWILSKLLTAGGDLRLHDEKGRNPQAWALTAGKDRSTQMVEFMQRCTSHMKAIIQGFSYDLLKKIDSPQRLIGSPPWFGSLIQGSPNSSPNRQLKPGIISAQNIYSFGFGKFYLTSGMQLTYPGSLPVIGEKEVVQADDEPTFSFFSGPYMVMTNLVWNRSRVTVKELNLPTRPHCSRLRLADLLIAEQEHSSNLRHPNLLQLMAVCLSRDLEKIRLVYERITVGTLFSVLHERRSQFPVLHMEVIVHLLLQVADALIYLHSRGFIHRSLSSYAVHIVSAGEARLTNLEYLTESQDSGAHRNVTRMPLPTQLYNWAAPEVVLQKAATVKSDIYSFSVIIQEILTDSIPWNGLDGSLVKETIALGNYLEADVRLPEPYYDIVKSGIHAKQKNRTMNLQDIRYILKNDLKEFIGAQKTQPTESPRGQSYEPHPDVNICLGLTSEYQKDPPDLDIKELKEMGSQPHSPTDHSFLTVKPTLAPQTLDSSLSAQKPDNANVPSPPAACLAEEVRSPTASQDSLCSFEINEIYSGCLTLGTDKEEECLGTAASPEGDRPNQGDELPSLEEELDKMERELHCFCEEDKSISEVDTDLLFEDDDWQSDSLGSLNLPEPTREAKGKTSSWSKTDEYVSKCVLNLKISQVMMQQSAEWLRKLEQEVEELEWAQKELDSQCSSLRDASLKFANAKFQPAVGPPSLAYLPPVMQLPGLKQPENGGTWLTLARSPGNEREFQEGHFSKKPEKLSACGWKPFTQVSEESRGDCSELNNQLPTLRGPGKQSTGEQLPSTQEARESLEKNTNQNSRSMASVSSEIYATKSRNNEDNGEAHLKWRLAVKEMAEKAVSGQLLLPPWNPQSSAPFESKVENESTPLPRPPIRGPESTEWQHILEYQRENDEPKGNTKFGKMDNSDCDKNKHSRWTGLQRFTGIRYPFFRNHEQPEQNEASQASCDTSVGTEKFYSTSSPIGDDFERFQDSFAQRQGYVEENFQIREIFEKNAEILTKPQFQAIQCAEDKQDETLGETPKELKEKNTSLTDIQDLSSITYDQDGYFKETSYKTPKLKHAPTSASTPLSPESISSAASHYEDCLENTTFHVKRGSTFCWNGQEAMRTLSAKFTTVRERAKSLESLLASSKSLPAKLTDSKRLCMLSETGSSNVSAAFVTSTHATKRKSLPRELAEATSQQHLDELPPPAQELLDEIEQLKQQQVSSLASHENTARDLSVTNKDKKHLEEQETNSSKDSSFLSSREIQDLEDTERAHSSLDEDLERFLQSPEENTALLDPTKGSTREKKNKDQDVVEQKRKKKESIKPERRESDSSLGTLEEDELKPCFWKRLGWSEPSRIIVLDQSDLSD
Regarding B1, the binding result is reported as “binds”.
